This note sets out measurements from PMC10066265, “Inhibitor-3 inhibits Protein Phosphatase 1 via a metal binding dynamic protein–protein interaction” (Nature Communications, 2023).

Sequences of proteins named here, by UniProt entry; tags and fusion partners are left off. A change or cut given only in a name is not applied to a line headed by its entry. Residues count along the entry.
UniProt P62136, residues 7-330: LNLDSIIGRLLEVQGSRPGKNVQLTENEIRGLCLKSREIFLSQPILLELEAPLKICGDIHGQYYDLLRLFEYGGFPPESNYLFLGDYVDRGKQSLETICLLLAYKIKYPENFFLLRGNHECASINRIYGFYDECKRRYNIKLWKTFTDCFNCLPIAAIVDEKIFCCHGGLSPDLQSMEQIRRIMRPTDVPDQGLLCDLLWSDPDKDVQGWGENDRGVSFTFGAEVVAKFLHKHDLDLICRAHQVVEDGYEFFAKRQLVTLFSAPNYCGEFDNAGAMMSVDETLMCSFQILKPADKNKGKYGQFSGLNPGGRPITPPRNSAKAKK
UniProt O60927: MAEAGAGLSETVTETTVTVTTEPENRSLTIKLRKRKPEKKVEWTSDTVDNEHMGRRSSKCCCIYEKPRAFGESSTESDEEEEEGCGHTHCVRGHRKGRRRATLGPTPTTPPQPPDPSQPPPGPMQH

In test [1] the target is PP1α7-330 (UniProt P62136). The test can be described thus: SPR; His6-PP1 captured on a Ni-NTA sensor chip (NiHC200M), I3 variants injected; 25 °C; 20 mM Tris pH 8.0, 500 mM NaCl, 1 mM MnCl2, 0.5 mM TCEP, 0.05% Tween-20; one-to-one one-state or one-to-one two-state fit; both purified.
The next test has as its target His6-PP1α_(7-330) (UniProt P62136 7-330). Put plainly: SPR; His6-PP1 captured on a Ni-NTA sensorchip (NiHC200M), I3 variants injected; 25 °C; 20 mM Tris pH 8.0, 500 mM NaCl, 1 mM MnCl2, 0.5 mM TCEP, 0.05% Tween-20; one-to-one one state or one-to-one two state model; both purified.
The target in test [2] is PP1α7-330 (UniProt P62136). The test can be described thus: SPR; His6-PP1 captured on Ni-NTA chip (NiHC200M), I3 variants injected; 25 °C; 20 mM Tris pH 8.0, 500 mM NaCl, 1 mM MnCl2, 0.5 mM TCEP, 0.05% Tween-20; one-to-one one state or one-to-one two state model (TraceDrawer); both purified.

No constants are given. Whether binding was seen depends on the method and setting.

B1: I379-91 peptide (peptide, UniProt O60927 79-91)
peptide: EEEEEGCGHTHCV
For the molecule B1, the binding entry with PP1α7-330 [1] is given as “no binding (tested: 10000 nM)”.

B2: I3_(79-91) peptide (peptide, UniProt O60927 79-91)
peptide: EEEEEGCGHTHCV
For the molecule B2, the binding result with His6-PP1α_(7-330) was “no binding”; with PP1α7-330 [2] it was “no binding (tested: 10000 nM)”.
